According to patent publication US7795203B2, “Method for topical treatment of eye disease and composition and device for said treatment” (priority 2002, dated 2010):
At least one peptide structure holds a part that was inferred or is arguable (an end, a ring closure or a residue). Where a SMILES comes first, the peptide text is derived from it.

Assay: Clinical study of 0.1% N-Acetyl-RGDS in patients with POAG and OH (IOP, tonography)
Type: in vivo, human
Text: Without intending to be bound by theory, the inventor currently believes that RGD-containing peptides, and/or their pharmacologically acceptable salts, are efficacious for the therapeutical and surgical treatment of primary open-angle glaucoma (POAG) and ocular hypertension (OH). […] The effect of 0.1% N-Acetyl-RGDS on outflow facility, as studied by tonography, was striking providing a significant increase to 26-33%. The cleansing activity of Acetyl-RGDS is accompanied by increase in trabecular outflow facility which is different from that of other drugs (pilocarpine) previously shown in patients with POAG and OH. The clinical significance and mechanism of IOP reduction by N-Acetyl-RGDS are related with the cleansing effect of N-Acetyl-RGDS on extracellular matrix proteins and plaque material in trabecular meshwork to reduce the outflow resistance in the eyes of patients with POAG and OH. It is believed N-Acetyl-RGDS is also suitable to treat secondary cataracts and vitreoproliferative disorders.

[1] = 0.1% topically twice daily, patients with POAG and OH

CC(=O)N[C@@H](CCCNC(=N)N)C(=O)NCC(=O)N[C@@H](CC(=O)O)C(=O)N[C@@H](CO)C(=O)O [N-Acetyl-RGDS, N-acetyl-Arg-Gly-Asp-Ser peptide] (Ac-RGDS-OH)
IOP reduction compared with 0.5% timolol taken twice daily [1]: more effective in reducing IOP than 0.5% timolol
intraocular pressure (IOP) [1]: effectively reduced intraocular pressure
increase of outflow facility (0.1%, studied by tonography): 26-33%
